Experimental data as given in article PMC10123117.
Results are given in words; binding and its absence hold for the method and conditions named. In cells and extracts the contact can be indirect. Some entries that bind do so weakly or less than the wild type.

Sequences of proteins named here, by UniProt entry; tags and fusion partners are left off.
UniProt Q6A4J8: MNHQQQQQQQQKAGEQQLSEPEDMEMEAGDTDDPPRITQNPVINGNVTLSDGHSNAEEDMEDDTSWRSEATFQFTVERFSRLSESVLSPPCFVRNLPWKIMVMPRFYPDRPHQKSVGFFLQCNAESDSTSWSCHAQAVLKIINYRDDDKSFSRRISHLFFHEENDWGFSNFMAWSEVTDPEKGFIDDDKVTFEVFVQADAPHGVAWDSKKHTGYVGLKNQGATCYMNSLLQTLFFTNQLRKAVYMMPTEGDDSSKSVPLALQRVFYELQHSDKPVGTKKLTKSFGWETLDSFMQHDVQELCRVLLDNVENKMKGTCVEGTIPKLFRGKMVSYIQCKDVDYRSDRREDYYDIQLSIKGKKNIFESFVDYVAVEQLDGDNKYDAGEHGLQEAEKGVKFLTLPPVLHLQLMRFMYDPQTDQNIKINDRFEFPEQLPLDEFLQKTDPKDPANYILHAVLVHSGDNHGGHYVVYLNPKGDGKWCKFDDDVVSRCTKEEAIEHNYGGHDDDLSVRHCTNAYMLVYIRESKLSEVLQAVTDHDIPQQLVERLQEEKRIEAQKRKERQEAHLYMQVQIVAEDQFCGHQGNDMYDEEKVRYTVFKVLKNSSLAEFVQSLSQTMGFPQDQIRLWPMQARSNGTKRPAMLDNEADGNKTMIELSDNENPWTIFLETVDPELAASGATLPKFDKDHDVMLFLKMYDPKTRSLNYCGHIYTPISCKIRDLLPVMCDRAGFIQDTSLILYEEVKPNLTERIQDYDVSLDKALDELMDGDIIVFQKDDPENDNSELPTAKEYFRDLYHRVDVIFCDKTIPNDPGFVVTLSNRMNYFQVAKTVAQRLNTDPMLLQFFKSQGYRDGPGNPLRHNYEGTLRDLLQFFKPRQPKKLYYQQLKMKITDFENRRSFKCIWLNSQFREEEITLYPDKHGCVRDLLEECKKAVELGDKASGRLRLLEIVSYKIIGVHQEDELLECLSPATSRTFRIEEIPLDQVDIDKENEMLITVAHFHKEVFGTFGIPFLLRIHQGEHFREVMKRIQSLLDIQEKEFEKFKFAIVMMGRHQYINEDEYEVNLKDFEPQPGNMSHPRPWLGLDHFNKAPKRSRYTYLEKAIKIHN
UniProt A2AWL7: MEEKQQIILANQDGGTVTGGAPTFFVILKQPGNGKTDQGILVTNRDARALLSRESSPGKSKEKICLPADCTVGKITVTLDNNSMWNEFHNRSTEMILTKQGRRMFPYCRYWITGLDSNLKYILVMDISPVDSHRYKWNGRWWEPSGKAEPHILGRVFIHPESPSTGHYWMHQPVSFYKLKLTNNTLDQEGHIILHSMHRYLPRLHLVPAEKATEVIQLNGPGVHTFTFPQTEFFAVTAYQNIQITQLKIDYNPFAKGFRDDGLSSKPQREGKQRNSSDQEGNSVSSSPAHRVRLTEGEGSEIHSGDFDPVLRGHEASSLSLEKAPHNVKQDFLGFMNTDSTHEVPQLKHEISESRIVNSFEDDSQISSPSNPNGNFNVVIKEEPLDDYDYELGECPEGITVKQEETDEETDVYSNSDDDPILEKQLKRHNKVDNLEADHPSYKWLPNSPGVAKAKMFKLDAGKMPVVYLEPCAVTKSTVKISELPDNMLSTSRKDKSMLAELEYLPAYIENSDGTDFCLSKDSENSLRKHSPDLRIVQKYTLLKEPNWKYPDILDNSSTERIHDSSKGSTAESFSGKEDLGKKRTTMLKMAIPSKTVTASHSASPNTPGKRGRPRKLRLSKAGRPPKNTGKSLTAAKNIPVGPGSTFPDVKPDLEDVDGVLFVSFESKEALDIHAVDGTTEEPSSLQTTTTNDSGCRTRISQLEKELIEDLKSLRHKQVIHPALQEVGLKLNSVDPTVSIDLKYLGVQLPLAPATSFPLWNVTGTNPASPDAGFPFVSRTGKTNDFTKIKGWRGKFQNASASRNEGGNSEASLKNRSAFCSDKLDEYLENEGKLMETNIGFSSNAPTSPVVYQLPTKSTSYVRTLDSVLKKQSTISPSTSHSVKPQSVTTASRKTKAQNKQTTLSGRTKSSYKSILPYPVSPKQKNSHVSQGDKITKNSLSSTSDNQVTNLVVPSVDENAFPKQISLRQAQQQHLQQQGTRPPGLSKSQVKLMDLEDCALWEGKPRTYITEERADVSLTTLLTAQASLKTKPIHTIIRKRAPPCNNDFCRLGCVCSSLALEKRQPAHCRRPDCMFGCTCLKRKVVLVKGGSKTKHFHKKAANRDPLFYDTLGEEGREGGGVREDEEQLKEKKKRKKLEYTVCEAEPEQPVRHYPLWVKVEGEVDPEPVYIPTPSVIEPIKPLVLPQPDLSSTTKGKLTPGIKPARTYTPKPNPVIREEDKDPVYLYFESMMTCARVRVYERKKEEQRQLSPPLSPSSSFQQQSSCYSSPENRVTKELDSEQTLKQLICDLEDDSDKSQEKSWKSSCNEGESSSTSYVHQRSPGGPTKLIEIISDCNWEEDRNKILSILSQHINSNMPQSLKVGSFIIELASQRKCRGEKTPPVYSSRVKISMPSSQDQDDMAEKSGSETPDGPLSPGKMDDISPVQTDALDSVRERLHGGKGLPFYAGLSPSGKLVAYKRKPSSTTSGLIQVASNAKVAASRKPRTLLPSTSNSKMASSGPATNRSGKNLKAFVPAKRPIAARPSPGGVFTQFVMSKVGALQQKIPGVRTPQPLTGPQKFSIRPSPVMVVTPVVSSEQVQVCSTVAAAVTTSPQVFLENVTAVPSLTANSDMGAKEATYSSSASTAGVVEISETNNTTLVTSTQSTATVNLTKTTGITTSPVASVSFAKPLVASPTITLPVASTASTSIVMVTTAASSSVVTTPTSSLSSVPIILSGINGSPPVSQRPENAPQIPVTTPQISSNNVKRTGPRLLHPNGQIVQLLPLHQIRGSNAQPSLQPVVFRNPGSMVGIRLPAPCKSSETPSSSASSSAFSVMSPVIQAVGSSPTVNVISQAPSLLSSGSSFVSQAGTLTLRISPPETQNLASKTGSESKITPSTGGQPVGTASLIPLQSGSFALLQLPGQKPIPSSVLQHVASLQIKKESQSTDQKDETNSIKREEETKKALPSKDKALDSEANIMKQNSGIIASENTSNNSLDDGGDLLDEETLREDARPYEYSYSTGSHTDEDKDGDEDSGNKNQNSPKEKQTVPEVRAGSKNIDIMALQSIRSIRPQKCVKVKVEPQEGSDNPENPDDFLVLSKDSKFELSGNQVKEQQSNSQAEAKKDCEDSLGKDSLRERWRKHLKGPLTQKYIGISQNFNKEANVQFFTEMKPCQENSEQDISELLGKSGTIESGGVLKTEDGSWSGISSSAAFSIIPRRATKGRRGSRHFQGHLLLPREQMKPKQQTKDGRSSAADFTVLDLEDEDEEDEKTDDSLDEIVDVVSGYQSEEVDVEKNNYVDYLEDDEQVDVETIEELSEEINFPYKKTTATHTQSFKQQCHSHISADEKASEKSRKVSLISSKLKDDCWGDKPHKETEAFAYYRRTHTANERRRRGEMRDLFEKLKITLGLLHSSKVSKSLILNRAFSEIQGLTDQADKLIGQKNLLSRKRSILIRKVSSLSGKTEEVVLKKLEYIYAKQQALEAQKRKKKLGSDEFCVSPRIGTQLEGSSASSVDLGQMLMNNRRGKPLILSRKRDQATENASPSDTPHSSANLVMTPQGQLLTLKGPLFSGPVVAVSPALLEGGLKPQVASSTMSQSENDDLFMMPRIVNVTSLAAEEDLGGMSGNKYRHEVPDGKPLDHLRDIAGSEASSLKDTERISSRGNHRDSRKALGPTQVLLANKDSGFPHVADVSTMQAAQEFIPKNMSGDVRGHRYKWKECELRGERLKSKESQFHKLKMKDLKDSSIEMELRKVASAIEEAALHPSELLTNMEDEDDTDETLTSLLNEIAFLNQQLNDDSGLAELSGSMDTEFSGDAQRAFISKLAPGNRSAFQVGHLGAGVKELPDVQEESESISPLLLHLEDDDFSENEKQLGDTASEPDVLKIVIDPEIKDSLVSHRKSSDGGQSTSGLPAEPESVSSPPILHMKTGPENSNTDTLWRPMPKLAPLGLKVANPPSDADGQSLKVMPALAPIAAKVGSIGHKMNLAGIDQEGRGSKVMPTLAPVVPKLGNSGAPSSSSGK
UniProt P59178: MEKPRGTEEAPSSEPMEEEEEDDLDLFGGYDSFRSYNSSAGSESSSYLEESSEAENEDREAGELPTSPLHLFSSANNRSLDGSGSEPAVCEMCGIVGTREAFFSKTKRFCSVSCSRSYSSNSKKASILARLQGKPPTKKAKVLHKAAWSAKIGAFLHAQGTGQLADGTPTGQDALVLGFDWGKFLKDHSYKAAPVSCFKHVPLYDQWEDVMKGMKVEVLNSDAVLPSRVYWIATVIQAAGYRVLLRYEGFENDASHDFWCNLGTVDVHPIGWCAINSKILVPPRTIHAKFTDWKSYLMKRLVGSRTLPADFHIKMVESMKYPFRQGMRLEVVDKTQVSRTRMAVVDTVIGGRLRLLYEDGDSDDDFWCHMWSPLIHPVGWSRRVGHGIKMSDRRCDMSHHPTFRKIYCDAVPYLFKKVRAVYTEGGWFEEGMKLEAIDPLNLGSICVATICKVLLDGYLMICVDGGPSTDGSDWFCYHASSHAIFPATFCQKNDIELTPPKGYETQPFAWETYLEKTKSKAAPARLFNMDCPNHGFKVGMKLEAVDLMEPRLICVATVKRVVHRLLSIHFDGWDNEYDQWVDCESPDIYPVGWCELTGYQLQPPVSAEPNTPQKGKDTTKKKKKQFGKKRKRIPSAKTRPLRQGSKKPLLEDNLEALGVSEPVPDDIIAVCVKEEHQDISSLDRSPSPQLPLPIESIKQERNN
UniProt Q9CQJ4: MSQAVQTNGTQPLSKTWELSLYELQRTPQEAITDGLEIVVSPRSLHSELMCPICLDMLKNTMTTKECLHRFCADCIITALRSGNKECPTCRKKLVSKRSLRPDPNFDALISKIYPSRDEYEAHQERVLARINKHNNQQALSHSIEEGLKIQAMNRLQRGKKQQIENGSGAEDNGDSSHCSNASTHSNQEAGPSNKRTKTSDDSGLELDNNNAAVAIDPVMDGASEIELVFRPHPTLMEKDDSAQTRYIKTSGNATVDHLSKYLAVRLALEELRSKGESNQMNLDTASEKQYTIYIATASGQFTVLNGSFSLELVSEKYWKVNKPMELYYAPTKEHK

Target: USP7 (mouse (endogenous in E14TG2a ES cells)) (UniProt Q6A4J8)
Assay: co-IP; endogenous USP7 immunoprecipitated from 2 mg mESC lysate (50 mM Tris-HCl pH 7.5, 150 mM NaCl, 0.5 mM EDTA, 1% Triton X100) with anti-USP7 antibody overnight at 4°C, Protein A/G magnetic beads, washes with 250 mM NaCl; Western blot; Usp7-KO ES cells as negative control

Substance	binding
MGA (from UniProt A2AWL7 1-3003)	binds
L3MBTL2 (from UniProt P59178 1-703)	binds
RING1B (from UniProt Q9CQJ4 1-336)	binds
